Reference: the supplement of paper PMC10849652
The list shows a part of the results.

By UniProt entry, the sequences of proteins in these tests, tags left out. Where a name states a change or a piece, a line headed by the entry shows the natural chain unless it says otherwise.
UniProt O95295: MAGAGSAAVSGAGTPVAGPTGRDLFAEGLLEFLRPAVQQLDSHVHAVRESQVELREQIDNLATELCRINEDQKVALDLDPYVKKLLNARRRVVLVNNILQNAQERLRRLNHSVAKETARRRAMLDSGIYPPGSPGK
UniProt P09012, whole entry, looked up: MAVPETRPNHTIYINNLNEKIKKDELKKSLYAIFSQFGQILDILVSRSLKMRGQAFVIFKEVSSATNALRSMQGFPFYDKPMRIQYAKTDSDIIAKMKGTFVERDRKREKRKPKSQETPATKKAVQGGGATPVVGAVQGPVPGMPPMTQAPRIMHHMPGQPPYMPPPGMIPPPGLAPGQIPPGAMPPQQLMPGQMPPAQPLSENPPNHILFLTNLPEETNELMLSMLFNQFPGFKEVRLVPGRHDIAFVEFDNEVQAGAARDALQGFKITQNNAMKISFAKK
UniProt O75391: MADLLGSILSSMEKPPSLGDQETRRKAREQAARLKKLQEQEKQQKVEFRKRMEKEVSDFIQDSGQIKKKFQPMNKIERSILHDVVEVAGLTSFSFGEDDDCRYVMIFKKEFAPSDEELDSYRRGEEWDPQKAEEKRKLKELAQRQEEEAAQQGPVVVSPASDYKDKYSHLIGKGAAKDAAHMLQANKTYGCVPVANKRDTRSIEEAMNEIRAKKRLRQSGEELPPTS
UniProt Q6GMV2: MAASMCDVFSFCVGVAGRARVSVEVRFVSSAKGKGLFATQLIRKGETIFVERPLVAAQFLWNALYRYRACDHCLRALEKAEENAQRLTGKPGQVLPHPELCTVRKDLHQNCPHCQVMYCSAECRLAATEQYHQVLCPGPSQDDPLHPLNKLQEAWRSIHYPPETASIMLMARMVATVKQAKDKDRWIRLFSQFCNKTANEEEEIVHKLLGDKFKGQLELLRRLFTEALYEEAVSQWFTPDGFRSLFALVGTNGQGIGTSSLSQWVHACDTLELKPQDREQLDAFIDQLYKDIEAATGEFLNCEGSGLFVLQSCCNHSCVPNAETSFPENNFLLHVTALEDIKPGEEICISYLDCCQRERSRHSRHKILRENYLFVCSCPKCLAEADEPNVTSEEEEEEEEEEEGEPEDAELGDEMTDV
UniProt Q92536: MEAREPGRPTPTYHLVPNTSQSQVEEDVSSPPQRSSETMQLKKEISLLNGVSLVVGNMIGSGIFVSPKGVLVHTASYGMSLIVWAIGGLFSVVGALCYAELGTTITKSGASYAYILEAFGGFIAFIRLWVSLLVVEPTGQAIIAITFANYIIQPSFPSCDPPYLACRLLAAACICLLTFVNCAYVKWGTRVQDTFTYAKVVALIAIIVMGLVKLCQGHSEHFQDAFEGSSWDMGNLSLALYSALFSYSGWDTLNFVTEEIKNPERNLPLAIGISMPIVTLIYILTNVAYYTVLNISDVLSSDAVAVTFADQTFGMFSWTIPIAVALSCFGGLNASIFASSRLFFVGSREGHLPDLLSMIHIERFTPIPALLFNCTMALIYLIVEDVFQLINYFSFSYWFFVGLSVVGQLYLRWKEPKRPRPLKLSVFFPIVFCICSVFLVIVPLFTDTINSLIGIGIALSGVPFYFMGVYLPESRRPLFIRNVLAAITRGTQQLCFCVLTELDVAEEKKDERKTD
UniProt P62308, whole entry, looked up: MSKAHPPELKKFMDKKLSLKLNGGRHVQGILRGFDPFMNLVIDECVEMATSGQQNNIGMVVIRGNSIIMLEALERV
UniProt Q14BN4: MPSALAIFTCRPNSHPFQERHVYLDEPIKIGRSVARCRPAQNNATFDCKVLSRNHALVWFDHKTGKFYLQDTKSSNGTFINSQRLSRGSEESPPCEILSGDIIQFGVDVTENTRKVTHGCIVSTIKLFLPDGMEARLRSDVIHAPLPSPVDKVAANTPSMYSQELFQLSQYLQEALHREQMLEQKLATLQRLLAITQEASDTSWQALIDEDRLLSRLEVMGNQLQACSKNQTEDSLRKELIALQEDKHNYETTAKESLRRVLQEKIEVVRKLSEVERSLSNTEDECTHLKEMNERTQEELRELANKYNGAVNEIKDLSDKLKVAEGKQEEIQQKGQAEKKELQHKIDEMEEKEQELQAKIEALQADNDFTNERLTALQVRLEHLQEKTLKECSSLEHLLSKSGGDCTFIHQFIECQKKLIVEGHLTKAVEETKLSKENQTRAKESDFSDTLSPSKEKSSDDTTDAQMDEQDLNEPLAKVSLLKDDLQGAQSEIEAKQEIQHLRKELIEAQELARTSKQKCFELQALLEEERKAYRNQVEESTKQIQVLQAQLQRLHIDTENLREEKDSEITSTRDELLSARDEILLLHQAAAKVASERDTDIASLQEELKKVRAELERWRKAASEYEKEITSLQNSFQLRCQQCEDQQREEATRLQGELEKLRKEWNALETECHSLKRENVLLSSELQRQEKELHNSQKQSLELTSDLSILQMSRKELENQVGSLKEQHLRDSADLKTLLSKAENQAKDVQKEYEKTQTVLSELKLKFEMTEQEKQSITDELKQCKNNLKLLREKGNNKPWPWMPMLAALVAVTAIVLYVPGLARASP
UniProt Q96SB8: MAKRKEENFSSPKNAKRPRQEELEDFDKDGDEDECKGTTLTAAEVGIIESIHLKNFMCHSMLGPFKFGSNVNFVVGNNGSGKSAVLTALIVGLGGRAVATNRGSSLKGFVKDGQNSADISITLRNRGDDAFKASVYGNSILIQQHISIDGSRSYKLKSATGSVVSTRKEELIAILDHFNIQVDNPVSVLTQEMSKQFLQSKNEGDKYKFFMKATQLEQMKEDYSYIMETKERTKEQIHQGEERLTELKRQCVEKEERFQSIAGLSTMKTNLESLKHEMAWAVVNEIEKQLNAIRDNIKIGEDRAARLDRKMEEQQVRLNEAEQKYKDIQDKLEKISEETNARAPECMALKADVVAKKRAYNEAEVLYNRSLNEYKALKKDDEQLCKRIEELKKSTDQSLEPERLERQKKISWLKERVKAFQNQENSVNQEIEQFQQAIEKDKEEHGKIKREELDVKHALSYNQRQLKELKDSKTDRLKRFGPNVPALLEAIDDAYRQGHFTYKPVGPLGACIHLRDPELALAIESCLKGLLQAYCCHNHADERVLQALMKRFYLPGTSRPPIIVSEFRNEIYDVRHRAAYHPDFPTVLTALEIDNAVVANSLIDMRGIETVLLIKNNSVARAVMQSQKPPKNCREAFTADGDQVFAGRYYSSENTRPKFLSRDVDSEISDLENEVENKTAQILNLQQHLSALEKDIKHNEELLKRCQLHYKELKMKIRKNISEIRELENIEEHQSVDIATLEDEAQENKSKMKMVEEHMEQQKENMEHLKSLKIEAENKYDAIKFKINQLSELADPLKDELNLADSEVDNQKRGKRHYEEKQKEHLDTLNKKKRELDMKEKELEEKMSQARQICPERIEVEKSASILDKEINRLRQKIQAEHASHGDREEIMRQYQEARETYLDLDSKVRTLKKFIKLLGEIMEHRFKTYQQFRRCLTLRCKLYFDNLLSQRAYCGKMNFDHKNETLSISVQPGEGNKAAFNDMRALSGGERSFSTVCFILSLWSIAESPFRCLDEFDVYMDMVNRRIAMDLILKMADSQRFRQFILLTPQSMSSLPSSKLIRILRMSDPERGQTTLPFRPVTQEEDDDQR
UniProt O60271: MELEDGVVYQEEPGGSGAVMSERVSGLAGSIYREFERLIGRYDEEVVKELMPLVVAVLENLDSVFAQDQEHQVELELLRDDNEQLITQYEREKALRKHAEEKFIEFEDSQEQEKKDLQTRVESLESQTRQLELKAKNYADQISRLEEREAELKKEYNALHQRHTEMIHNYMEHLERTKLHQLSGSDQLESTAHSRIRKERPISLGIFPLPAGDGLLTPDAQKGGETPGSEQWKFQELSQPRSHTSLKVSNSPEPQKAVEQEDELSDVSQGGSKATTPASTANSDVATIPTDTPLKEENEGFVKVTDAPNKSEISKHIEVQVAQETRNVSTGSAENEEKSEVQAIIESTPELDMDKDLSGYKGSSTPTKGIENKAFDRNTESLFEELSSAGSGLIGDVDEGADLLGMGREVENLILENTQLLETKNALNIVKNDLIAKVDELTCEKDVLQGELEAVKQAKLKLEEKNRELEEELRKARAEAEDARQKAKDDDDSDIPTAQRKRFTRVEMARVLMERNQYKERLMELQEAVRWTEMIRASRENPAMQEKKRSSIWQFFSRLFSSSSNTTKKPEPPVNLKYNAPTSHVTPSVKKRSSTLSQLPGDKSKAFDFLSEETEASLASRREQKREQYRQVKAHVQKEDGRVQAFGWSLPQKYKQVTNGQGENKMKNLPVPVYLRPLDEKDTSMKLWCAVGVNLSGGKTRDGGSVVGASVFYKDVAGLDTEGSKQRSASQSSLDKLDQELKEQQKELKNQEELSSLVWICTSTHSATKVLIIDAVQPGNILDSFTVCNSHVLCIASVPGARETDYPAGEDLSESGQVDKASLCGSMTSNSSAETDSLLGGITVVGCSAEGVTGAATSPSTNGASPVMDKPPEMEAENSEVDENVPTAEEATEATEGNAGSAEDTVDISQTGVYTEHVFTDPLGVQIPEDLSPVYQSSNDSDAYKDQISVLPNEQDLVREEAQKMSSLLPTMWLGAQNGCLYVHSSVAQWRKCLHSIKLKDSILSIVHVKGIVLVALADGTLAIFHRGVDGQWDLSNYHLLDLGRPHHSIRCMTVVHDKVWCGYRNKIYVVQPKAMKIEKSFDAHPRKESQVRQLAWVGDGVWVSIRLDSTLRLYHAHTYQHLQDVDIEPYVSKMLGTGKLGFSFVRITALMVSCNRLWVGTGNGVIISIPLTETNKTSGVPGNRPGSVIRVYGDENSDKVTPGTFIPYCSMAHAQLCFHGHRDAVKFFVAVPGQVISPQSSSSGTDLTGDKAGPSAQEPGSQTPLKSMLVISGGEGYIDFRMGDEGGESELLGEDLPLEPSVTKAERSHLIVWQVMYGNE
UniProt P08579, whole entry, looked up: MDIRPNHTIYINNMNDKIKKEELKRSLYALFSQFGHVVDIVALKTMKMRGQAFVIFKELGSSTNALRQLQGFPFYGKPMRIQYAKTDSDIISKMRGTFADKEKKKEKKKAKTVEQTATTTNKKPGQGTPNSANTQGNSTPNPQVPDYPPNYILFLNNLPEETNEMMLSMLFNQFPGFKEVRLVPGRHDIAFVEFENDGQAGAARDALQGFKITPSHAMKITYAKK
UniProt Q9Y5X1: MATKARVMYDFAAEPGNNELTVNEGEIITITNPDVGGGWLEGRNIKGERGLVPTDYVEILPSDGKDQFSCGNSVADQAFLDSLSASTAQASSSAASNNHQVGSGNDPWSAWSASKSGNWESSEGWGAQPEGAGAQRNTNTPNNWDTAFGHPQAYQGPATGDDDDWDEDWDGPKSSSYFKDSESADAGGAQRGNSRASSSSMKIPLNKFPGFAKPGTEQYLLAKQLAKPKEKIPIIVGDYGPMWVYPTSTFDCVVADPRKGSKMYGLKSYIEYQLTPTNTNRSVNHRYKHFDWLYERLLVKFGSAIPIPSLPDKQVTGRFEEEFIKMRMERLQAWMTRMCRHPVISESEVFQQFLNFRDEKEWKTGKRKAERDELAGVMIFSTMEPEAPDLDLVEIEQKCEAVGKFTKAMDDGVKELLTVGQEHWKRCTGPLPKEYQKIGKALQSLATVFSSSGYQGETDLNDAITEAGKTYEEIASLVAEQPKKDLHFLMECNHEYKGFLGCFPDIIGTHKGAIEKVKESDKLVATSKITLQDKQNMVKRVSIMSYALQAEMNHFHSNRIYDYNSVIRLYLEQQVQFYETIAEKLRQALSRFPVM
UniProt Q92581: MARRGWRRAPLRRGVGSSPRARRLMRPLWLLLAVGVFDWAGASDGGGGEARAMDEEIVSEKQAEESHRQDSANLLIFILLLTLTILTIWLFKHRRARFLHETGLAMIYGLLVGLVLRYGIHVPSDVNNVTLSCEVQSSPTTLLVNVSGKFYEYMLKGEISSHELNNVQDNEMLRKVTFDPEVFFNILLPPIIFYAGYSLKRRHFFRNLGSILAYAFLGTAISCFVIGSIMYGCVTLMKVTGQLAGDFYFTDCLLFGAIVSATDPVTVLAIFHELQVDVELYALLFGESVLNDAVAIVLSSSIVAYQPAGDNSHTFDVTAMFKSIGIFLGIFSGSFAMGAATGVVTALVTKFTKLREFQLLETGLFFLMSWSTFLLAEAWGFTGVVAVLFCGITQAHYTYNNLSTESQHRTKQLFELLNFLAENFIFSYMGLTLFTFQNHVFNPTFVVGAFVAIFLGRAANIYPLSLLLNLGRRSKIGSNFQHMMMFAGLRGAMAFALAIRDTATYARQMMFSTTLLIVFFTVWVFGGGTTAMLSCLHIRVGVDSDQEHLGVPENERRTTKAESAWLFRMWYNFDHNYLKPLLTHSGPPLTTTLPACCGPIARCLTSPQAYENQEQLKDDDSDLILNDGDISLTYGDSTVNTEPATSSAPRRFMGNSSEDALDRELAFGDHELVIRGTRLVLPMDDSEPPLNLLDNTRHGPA

Tests used:
Assay in all cases: log2 fold change, soluble protein after heating vs DMSO (PISA); higher = thermal stabilisation; K562 cells, 10 uM, 30 min; active = over 0.2 and 3.5 SD of the protein, either way, in both replicates (recomputed)
[1] = compound: COC1=CC=C(C=C1)CN2C=CC3=C2C=C(C=C3)C(=O)NO
Method in brief: (§1)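 Values are thermal stability changes relative to control samples and are taken from duplicates. They are stated as log2 fold changes. Before quantification by TMTpro 16plex LC-MS/MS with equalised channel sums, K562 cells at 2×10^6 cells/mL were treated with 10 μM compound for 30 min, heated in aliquots for 3 min across 48°C-58°C, pooled, extracted in PBS with 0.5% NP-40 at 4°C, and centrifuged at 21,000xg for 90 min to give the soluble supernatant.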

[2] = compound: CON(C)C(=O)N1N=C(c2cc(F)ccc2F)S[C@@]1(CCCN)c1ccccc1 [filanesib]
Method in brief: as §1

[3] = compound: CO[C@H]1C[C@@H]2CC[C@@H](C)[C@@](O)(O2)C(=O)C(=O)N2CCCC[C@H]2C(=O)O[C@H]([C@H](C)C[C@@H]2CC[C@H](n3cnnn3)[C@H](OC)C2)CC(=O)[C@H](C)/C=C(\C)[C@@H](O)[C@@H](OC)C(=O)[C@H](C)C[C@H](C)/C=C/C=C/C=C/1C [zotarolimus]
Method in brief: as §1

[4] = compound: COc1cc(C(=O)O)ccc1NC(=O)[C@@H]1N[C@@H](CC(C)(C)C)[C@](C#N)(c2ccc(Cl)cc2F)[C@H]1c1cccc(Cl)c1F [idasanutlin]
Method in brief: as §1

[5] = compound: COc1cc(Nc2ncc3c(n2)-c2ccc(Cl)cc2C(c2c(F)cccc2OC)=NC3)ccc1C(=O)O [alisertib]
Method in brief: as §1

[6] = compound: COc1cc2nc(-c3cc(F)ccc3O)nc(N[C@@H]3CNC[C@H]3C(C)(C)O)c2cc1OC
Method in brief: as §1

[7] = compound: COc1cc2ncnc(Nc3ccc(F)c(Cl)c3)c2cc1OCCCN1CCOCC1 [gefitinib]
Method in brief: as §1

[8] = compound: COc1cccc2cc(-c3nc([C@H]4CC[C@H](C(=O)O)CC4)n4ncnc(N)c34)[nH]c12
Method in brief: as §1

[9] = compound: CS(=O)(=O)CCNCc1ccc(-c2ccc3ncnc(Nc4ccc(OCc5cccc(F)c5)c(Cl)c4)c3c2)o1 [lapatinib]
Method in brief: as §1

[10] = compound: CS(=O)(=O)N1CCN(Cc2cc3nc(-c4cccc5[nH]ncc45)nc(N4CCOCC4)c3s2)CC1 [pictilisib]
Method in brief: as §1

[11] = compound: CS(=O)(=O)c1ccc(-c2cnc(N)c(C(=O)Nc3ccccc3)n2)cc1
Method in brief: as §1

[12] = compound: C[C@@H](Oc1cc(-c2cnn(C3CCNCC3)c2)cnc1N)c1c(Cl)ccc(F)c1Cl [crizotinib]
Method in brief: as §1

[13] = compound: C[C@@H]1COCCN1C2=NC(=NC(=C2)C3(CC3)S(=O)(=O)C)C4=C5C=CNC5=CC=C4
Method in brief: as §1

[14] = compound: C[C@H](C1=CC=C(C=C1)C(=O)NC2=C3C=CNC3=NC=C2)N
Method in brief: as §1

[15] = compound: C[C@H](Nc1ncnc2nc[nH]c12)c1cc2cccc(Cl)c2c(=O)n1-c1ccccc1 [duvelisib]
Method in brief: as §1

[16] = compound: Cc1cc(Nc2cc(CN3CCOCC3)c3nc(C)c(Cc4ccc(Cl)cc4F)n3n2)n[nH]1 [gandotinib]
Method in brief: as §1

[17] = compound: Cc1cc(Nc2cc(N3CCN(C)CC3)nc(Sc3ccc(NC(=O)C4CC4)cc3)n2)n[nH]1 [tozasertib]
Method in brief: as §1

[18] = compound: Cc1cc(SCc2sc(-c3ccc(C(F)(F)F)cc3)nc2C)ccc1OCC(=O)O
Method in brief: as §1

[19] = compound: Cc1ccc(-n2nc(C(C)(C)C)cc2NC(=O)Nc2ccc(OCCN3CCOCC3)c3ccccc23)cc1 [doramapimod]
Method in brief: as §1

[20] = compound: Cc1ccc(C(=O)N(CCCN)[C@@H](c2nc3cc(Cl)ccc3c(=O)n2Cc2ccccc2)C(C)C)cc1 [ispinesib]
Method in brief: as §1

Measured: log2 fold change

SNAPIN (UniProt O95295)
inactive: [1] -0.084 | [2] -0.04 | [3] 0.02 | [4] -0.01 | [5] -0.099 | [6] 0.023 | [7] 0.007 | [8] 0.08 | [9] -0.037 | [10] 0.007 | [11] -0.026 | [12] 0.049 | [13] 0.207 | [14] -0.034 | [15] 0.049 | [16] -0.002 | [17] 0.035 | [18] 0.014 | [19] 0.086 | [20] -0.011

SNRPA (UniProt P09012)
inactive: [1] -0.03 | [2] 0.176 | [3] -0.036 | [4] 0.09 | [5] -0.123 | [6] 0.029 | [7] -0.043 | [8] 0.011 | [9] 0.007 | [10] 0.05 | [11] -0.062 | [12] 0.047 | [13] -0.12 | [14] 0.084 | [15] -0.046 | [16] 0.06 | [17] 0 | [18] -0.067 | [19] 0.028 | [20] 0.036

SPAG7 (UniProt O75391)
inactive: [1] -0.027 | [2] 0.036 | [3] 0.019 | [4] -0.006 | [5] -0.05 | [6] 0.02 | [7] 0.08 | [8] 0.03 | [9] 0.003 | [10] -0.013 | [11] 0.048 | [12] 0.037 | [13] -0.015 | [14] -0.028 | [15] 0.035 | [16] 0.044 | [17] 0.021 | [18] 0.032 | [19] 0.007 | [20] 0.019

Quoted from the results shown (2 entries):
SNRPA (UniProt P09012)
inactive: [1] -0.03 | [2] 0.176 | [3] -0.036 | [4] 0.09 | [5] -0.123 | [6] 0.029 | [7] -0.043 | [8] 0.011 | [9] 0.007 | [10] 0.05 | [11] -0.062 | [12] 0.047 | [13] -0.12 | [14] 0.084 | [15] -0.046 | [16] 0.06 | [17] 0 | [18] -0.067 | [19] 0.028 | [20] 0.036

SPAG7 (UniProt O75391)
inactive: [1] -0.027 | [2] 0.036 | [3] 0.019 | [4] -0.006 | [5] -0.05 | [6] 0.02 | [7] 0.08 | [8] 0.03 | [9] 0.003 | [10] -0.013 | [11] 0.048 | [12] 0.037 | [13] -0.015 | [14] -0.028 | [15] 0.035 | [16] 0.044 | [17] 0.021 | [18] 0.032 | [19] 0.007 | [20] 0.019

Following part.

SMYD5 (UniProt Q6GMV2)
inactive: [1] -0.014 | [2] -0.045 | [3] 0.028 | [4] -0.058 | [5] -0.067 | [6] 0.032 | [7] -0.039 | [8] -0.008 | [9] -0.038 | [10] -0.009 | [11] -0.026 | [12] 0.085 | [13] 0.045 | [14] -0.049 | [15] 0.063 | [16] 0.011 | [17] 0.018 | [18] -0.02 | [19] -0.007 | [20] 0.077

SLC7A6 (UniProt Q92536)
active: [1] -0.236
inactive: [2] 0.009 | [3] -0.001 | [4] -0.02 | [5] -0.069 | [6] 0.028 | [7] 0.073 | [8] 0.048 | [9] 0.033 | [10] 0.048 | [11] -0.011 | [12] 0.065 | [13] -0.173 | [14] -0.149 | [16] -0.114 | [18] -0.041 | [19] 0.001 | [20] 0.17

SNRPG (UniProt P62308)
inactive: [1] -0.033 | [2] 0.003 | [3] -0.131 | [4] 0.088 | [5] -0.023 | [6] 0.09 | [7] 0.045 | [8] 0.024 | [9] -0.014 | [10] 0.003 | [11] -0.02 | [12] 0.107 | [13] 0.007 | [14] -0.007 | [15] 0.008 | [16] 0.023 | [17] 0 | [18] -0.036 | [19] 0.001 | [20] 0.033

SLCO4A1 (UniProt Q96BD0)
inactive: [1] -0.192 | [2] -0.011 | [3] -0.005 | [4] -0.089 | [5] -0.148 | [6] 0.035 | [7] 0.227 | [8] -0.199 | [9] -0.066 | [10] 0.028 | [11] 0.048 | [12] 0.193 | [13] -0.096 | [14] -0.016 | [16] 0.054 | [17] 0.104 | [19] -0.081 | [20] -0.298

SMAP1 isoform 2 (UniProt Q8IYB5)
inactive: [1] 0.19 | [2] -0.046 | [3] -0.032 | [4] -0.029 | [5] -0.062 | [6] 0.065 | [7] 0.02 | [8] -0.056 | [9] -0.058 | [10] -0.041 | [11] -0.009 | [12] 0.017 | [13] -0.025 | [14] 0.035 | [15] 0.033 | [16] 0.01 | [17] -0.003 | [18] 0.051 | [19] 0.008 | [20] 0.059

SLMAP (UniProt Q14BN4)
inactive: [1] 0.056 | [2] 0.137 | [3] 0.043 | [4] -0.005 | [5] -0.022 | [6] 0.012 | [7] 0.051 | [8] -0.126 | [9] -0.004 | [10] 0.016 | [11] -0.059 | [12] 0.015 | [13] -0.034 | [14] 0.096 | [15] -0.017 | [16] 0.023 | [17] 0.033 | [18] 0.018 | [19] 0.072 | [20] 0.012

SMC6 isoform 2 (UniProt Q96SB8)
inactive: [1] 0.012 | [2] 0.059 | [3] 0.022 | [4] -0.02 | [5] -0.074 | [6] 0.05 | [7] 0.031 | [8] 0.049 | [9] -0.023 | [10] 0.042 | [11] 0.018 | [12] 0.113 | [13] 0.065 | [14] -0.009 | [15] 0.033 | [16] -0.036 | [17] 0.009 | [18] 0.015 | [19] -0.032 | [20] 0.03

SPAG9 (UniProt O60271)
inactive: [1] 0.005 | [2] -0.041 | [3] -0.011 | [4] 0 | [5] -0.034 | [6] -0.034 | [7] -0.01 | [8] -0.031 | [9] -0.026 | [10] 0.041 | [11] 0.046 | [12] -0.056 | [13] -0.002 | [14] 0.065 | [16] -0.034 | [18] 0.012 | [19] 0.023 | [20] -0.188

SNRPB2 (UniProt P08579)
inactive: [1] -0.018 | [2] 0.057 | [3] -0.035 | [4] 0.021 | [5] -0.121 | [6] 0.047 | [7] -0.021 | [8] -0.006 | [9] -0.002 | [10] 0.006 | [11] -0.014 | [12] 0.02 | [13] -0.024 | [14] 0.008 | [16] 0.026 | [18] -0.048 | [19] -0.01 | [20] 0.027

SNX9 (UniProt Q9Y5X1)
inactive: [1] -0.002 | [2] -0.017 | [3] 0.004 | [4] -0.01 | [5] -0.013 | [6] 0.019 | [7] 0.038 | [8] -0.059 | [9] -0.034 | [10] -0.036 | [11] 0.013 | [12] -0.077 | [13] -0.009 | [14] 0.003 | [16] -0.054 | [18] 0.115 | [19] -0.009 | [20] -0.074

SLC9A6 isoform 2 (UniProt Q92581)
inactive: [1] -0.077 | [2] -0.051 | [3] -0.062 | [4] -0.011 | [5] -0.013 | [6] 0.062 | [7] -0.017 | [8] 0.071 | [9] 0.003 | [10] 0.129 | [11] 0.028 | [12] 0.048 | [13] 0.022 | [14] -0.005 | [16] -0.105 | [18] -0.067 | [19] 0
active: [20] -0.331

SMARCC1 (UniProt Q92922)
inactive: [1] -0.171 | [2] 0.066 | [3] 0.077 | [4] 0.038 | [5] -0.045 | [6] -0.036 | [7] 0.069 | [8] -0.182 | [9] -0.038 | [10] -0.023 | [11] -0.022 | [12] -0.096 | [13] 0.027 | [14] 0.055 | [15] -0.016 | [16] 0.047 | [17] 0.023 | [18] 0.098 | [19] 0.059 | [20] -0.048
